Laboratory results: PubChem BioAssay AID1159584 (Peter MacCallum Cancer Centre, 2016)
Purpose: 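Genes whose loss is lethal only together with E-cadherin loss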 (primary screen). Cells: human MCF10A breast epithelial cells, parental and CDH1-null. Knock-down reagent: siRNA against human genes. Detection: 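Cell viability by CellTiter-Glo ATP luminescence, each line scaled to the mean of mock wells across plates, then CDH1-null over parental ratio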. Scale: CDH1-null / parental viability ratio: higher = CDH1-null cells survive relatively better than parental; CDH1-null viability vs mock: higher = more viable CDH1-null cells.
In all, the deposit lists about 18,000 reagents; below is a part drawn at random. The numbers tell different reagents against one gene apart. Not all columns of the deposit are shown. The record does not give: the amount of reagent, the time to read-out.

CDH1-null / parental viability ratio,CDH1-null viability vs mock (fraction of mock),gene symbol,siRNA no.
0.83,0.7,RNF216 (GeneID 54476),1
0.79,0.6,MRPL49 (GeneID 740),1
1.07,0.92,F2 (GeneID 2147),1
1.01,0.92,IREB2 (GeneID 3658),1
1.09,0.94,SLC13A5 (GeneID 284111),1
0.37,0.18,CNOT1 (GeneID 23019),1
0.95,0.76,PARS2 (GeneID 25973),1
1.04,1.18,PRDM1 (GeneID 639),1
1.01,0.74,SYNE4 (GeneID 163183),1
1.41,0.93,KIAA2013 (GeneID 90231),1
0.92,0.92,SPAG16 (GeneID 79582),1
1.06,0.87,SMNDC1 (GeneID 10285),1
1.04,0.7,GLB1L (GeneID 79411),1

Sorted by “CDH1-null / parental viability ratio” (descending): 4 of the entries above.
CDH1-null / parental viability ratio,CDH1-null viability vs mock (fraction of mock),gene symbol,siRNA no.
1.41,0.93,KIAA2013 (GeneID 90231),1
1.04,1.18,PRDM1 (GeneID 639),1
1.01,0.74,SYNE4 (GeneID 163183),1
0.92,0.92,SPAG16 (GeneID 79582),1

Further entries:
CDH1-null / parental viability ratio,CDH1-null viability vs mock (fraction of mock),gene symbol,siRNA no.
0.94,0.77,TMEM116 (GeneID 89894),1
0.85,0.86,VSIG8 (GeneID 391123),1
1.07,0.44,ABHD5 (GeneID 51099),1
1,0.81,PALMD (GeneID 54873),1
0.99,0.87,EPB41L2 (GeneID 2037),1
0.94,0.73,ANKS6 (GeneID 203286),1
0.69,0.44,DRC9 (GeneID 84223),1
0.89,0.68,ANGPTL8 (GeneID 55908),1
0.95,1.02,NEBL (GeneID 10529),1
1.25,0.74,NEBL (GeneID 10529),2
0.86,0.86,ABCC12 (GeneID 94160),1
0.9,0.86,PTH1R (GeneID 5745),1
0.73,0.48,HAAO (GeneID 23498),1
0.86,0.89,WDR38 (GeneID 401551),1
0.92,0.76,HIGD2A (GeneID 192286),1
